According to US20250320184A1 (SIRONAX LTD., priority 2022, published 2025):
Structures were worked out from names or drawings and are uncertain.

The chains behind the UniProt entries cited, without tags or fusion partners. Residues count along the entry.
UniProt Q6SZW1, 50-724 limits assumed: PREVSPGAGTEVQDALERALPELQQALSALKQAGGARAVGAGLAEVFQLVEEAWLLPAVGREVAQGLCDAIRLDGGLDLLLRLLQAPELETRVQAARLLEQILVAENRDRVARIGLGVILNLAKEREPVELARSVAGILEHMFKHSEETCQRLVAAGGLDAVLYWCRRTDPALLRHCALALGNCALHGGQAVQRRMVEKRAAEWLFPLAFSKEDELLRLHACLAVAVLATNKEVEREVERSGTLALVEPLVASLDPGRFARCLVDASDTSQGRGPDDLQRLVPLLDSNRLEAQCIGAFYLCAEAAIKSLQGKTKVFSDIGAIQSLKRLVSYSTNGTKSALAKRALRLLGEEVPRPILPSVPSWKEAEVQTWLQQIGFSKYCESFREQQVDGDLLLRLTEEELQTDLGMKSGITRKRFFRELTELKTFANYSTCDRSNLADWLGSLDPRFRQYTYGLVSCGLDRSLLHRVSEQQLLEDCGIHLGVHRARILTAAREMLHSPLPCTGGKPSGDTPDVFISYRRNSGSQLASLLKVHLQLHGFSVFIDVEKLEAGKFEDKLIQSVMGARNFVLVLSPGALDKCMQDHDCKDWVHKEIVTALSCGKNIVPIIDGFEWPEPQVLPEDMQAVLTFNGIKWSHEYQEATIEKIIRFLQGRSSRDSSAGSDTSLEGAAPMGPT

Molecular target: SARM1 (50-724) (Homo sapiens, UniProt Q6SZW1)
Experiment: SARM1 (50-724) enzymatic assay
Details: SARM1 inhibitory activity; purified SARM1 (50-724) 2 nM, 200 μM NMN activator, 100 μM NAD+ substrate, LC-MS/MS

IC50: > 1000 nM
Structure (SMILES): Cc1ccc(NS(=O)(=O)c2cccc(F)c2C)cc1C(N)=O
